Data reported in patent US20260158031A1, “AROMATIC HETEROCYCLIC COMPOUND, PHARMACEUTICAL COMPOSITION CONTAINING THE SAME, AND USE THEREOF” (HANG ZHOU YUHONG PHARMATECH CO., LTD., priority 2021, published 2026).

Target: T1, JAK3 kinase (Homo sapiens, UniProt P52333)
T1 sequence (P52333 1-1124): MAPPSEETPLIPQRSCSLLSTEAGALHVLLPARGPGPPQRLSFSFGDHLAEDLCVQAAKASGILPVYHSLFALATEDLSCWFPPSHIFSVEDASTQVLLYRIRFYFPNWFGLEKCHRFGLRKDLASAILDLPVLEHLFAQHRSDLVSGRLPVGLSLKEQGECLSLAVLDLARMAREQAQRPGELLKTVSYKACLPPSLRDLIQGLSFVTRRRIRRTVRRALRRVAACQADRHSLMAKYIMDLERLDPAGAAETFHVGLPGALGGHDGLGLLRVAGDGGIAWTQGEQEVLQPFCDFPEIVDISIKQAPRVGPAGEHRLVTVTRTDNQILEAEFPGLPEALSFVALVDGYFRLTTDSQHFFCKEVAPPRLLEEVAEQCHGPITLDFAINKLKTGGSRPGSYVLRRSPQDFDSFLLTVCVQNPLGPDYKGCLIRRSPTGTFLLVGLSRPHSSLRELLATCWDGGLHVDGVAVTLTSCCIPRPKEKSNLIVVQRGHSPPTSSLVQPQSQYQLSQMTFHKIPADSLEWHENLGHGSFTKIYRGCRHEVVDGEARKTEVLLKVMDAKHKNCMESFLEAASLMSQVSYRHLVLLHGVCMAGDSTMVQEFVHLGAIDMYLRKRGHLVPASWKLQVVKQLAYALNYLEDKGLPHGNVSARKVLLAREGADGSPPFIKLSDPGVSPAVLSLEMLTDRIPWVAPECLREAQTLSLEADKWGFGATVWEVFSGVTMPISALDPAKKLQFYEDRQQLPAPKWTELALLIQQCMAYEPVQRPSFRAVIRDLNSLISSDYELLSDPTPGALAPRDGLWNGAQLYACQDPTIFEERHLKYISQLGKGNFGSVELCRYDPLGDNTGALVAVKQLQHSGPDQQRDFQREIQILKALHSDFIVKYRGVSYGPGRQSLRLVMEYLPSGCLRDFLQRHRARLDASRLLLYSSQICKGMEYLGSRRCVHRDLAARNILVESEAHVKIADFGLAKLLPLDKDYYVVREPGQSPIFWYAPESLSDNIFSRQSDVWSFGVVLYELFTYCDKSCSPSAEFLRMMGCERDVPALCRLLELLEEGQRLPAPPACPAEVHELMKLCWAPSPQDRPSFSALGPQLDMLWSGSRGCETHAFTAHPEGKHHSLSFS
Assay: Mobility shift assay, in vitro JAK3 kinase inhibitory activity
Assay type: biochemical
Settings: Example 136
Experimental: A Mobility shift assay was adopted to detect compounds to be tested (see list below) for in vitro inhibitory activity on the enzyme activity of JAK3 kinase.
The compound was dissolved in 100% DMSO to formulate a 10 mM stock solution, which was stored in a −20° C. refrigerator with protection from light.
The compounds were diluted with gradients into solutions with a final concentration of 100 times in a 384-well plate. Then 250 nL was transferred to a 384 reaction plate with Echo550 for later use. […]
Among them: Conversion %_sample was the conversion rate reading of the sample; Conversion %_min was the mean value of the negative control wells, representing the conversion rate reading of the wells without enzyme activity; Conversion % max was the mean value of the positive control wells, representing the conversion rate reading of the wells without compound inhibition; and % Inhibition represented the percentage inhibition rate. […]

IC50: 0.65 nM
SMILES: CCS(=O)(=O)N1CCN(c2ccc(Nc3ncc(C(N)=O)c(NC4CC4)n3)cc2)CC1 [Cerdulatinib, reference compound]
